The record followed here is PMC6382350.

This assay concerns the target GFP-Prod (Drosophila melanogaster). In words: co-IP; GFP-Trap magnetic beads on lysates of larval brains (wor-gal4) or Upd testis tumors (nos-gal4) expressing GFP-Prod; lysis in 50 mM Tris pH 7.5, 5% glycerol, 0.2% IGEPAL, 1.5 mM MgCl2, 125 mM NaCl; 3 hr at 4°C; blotted with anti-GFP and anti-D1.

Results are given in words; binding and its absence hold for the method and conditions named. In cells and extracts the contact can be indirect.

B1: D1 (protein, UniProt P22058 1-355)
chain: MEEVAVKKRGRPSKASVGGKSSTAAVAAISPGIKKRGRPAKNKGSSGGGGQRGRPPKASKIQNDEDPEDEGEEDGDGDGSGAELANNSSPSPTKGRGRPKSSGGAGSGSGDSVKTPGSAKKRKAGRPKKHQPSDSENEDDQDEDDDGNSSIEERRPVGRPSAGSVNLNISRTGRGLGRPKKRAVESNGDGEPQVPKKRGRPPQNKSGSGGSTGYVPTGRPRGRPKANAAPVEKHEDNDDDQDDENSGEEEHSSPEKTVVAPKKRGRPSLAAGKVSKEETTKPRSRPAKNIDDDADDADSADQGQHNSKKESNDEDRAVDGTPTKGDGLKWNSDGENDANDGYVSDNYNDSESVAA
Turning to B1, the binding entry is listed as “no binding”.
